Measured values: patent US20070155687A1, “Methods and compositions for altering cell function” (Alltech, Inc., priority 2005, published 2007)
For at least one compound, name, drawing or mass did not settle the structure.

Columns and labels:
Assay type in all cases: in vivo
[1] = tested on: type II iodothyronine deiodinase, (Dio2); experiment: Intestinal gene expression: Dio2; settings: mouse intestine; diet 1 ppm Se, 100 days; vs selenium deficient
From the text: (§1) Animal Care. Male C57BL/6J mice were housed singly and started on the experimental diets described below immediately after weaning (21 days of age). The mice were maintained in the Shared Aging Rodent Facility at the William S. Middleton Memorial Veterans Administration Medical Center (Madison, Wis.). Temperature and humidity were maintained at constant levels. Room light was controlled to provide 12-hr cycles of light and dark.
(§2) Experimental diets were created by Harlan Teklad (Madison, Wis.). Selenium content of the diets was determined by Covance Inc. (Madison, Wis.). Five (5) animals were included in each of the following treatment groups: a diet deficient in selenium (SD); a diet supplemented with selenomethionine (SM, obtained from Sigma, St. Louis, Mo.) such that the final selenium content of the diet was one (1) part per million; a diet supplemented with sodium selenite (SS, Sigma) such that the final concentration of selenium in this diet was one (1) part per million; or a diet supplemented with the yeast selenium SEL-PLEX (SP, Alltech, Lexington, Ky), such that the final concentration of selenium in this diet was one (1) part per million. SEL-PLEX. […]
(§3) Tissue sample preparation and microarray analysis. […] For intestinal expression studies, the intestine was flushed twice with saline solution and small intestine was measured and divided in three equal segments. […]

[2] = tested on: Glutathione S-transferase, alpha 3 (Gsta3); experiment: Intestinal gene expression: Gsta3; settings: mouse intestine; diet 1 ppm Se, 100 days; vs Se-deficient diets; negative = down; NS = not significant
From the text: as §1, §2, §3

selenoprotein N1 (Sepn1) = experiment: Intestinal gene expression: selenoprotein N1; settings: mouse intestine; diet 1 ppm Se, 100 days; vs selenium deficient
From the text: as §1, §2, §3

Glyoxalase 1 (Glo 1) = experiment: Intestinal gene expression: Glo1; settings: mouse intestine; diet 1 ppm Se, 100 days; vs selenium deficient
From the text: as §1, §2, §3

[3] = tested on: LIM homeobox protein 8 gene (Lhx8); experiment: Intestinal gene expression: Lhx8; settings: mouse intestine; diet 1 ppm Se, 100 days; vs Se-deficient subjects
From the text: as §1, §2, §3

[4] = tested on: transforming growth factor beta 2 (TGF-β2); experiment: Intestinal gene expression: TGF-β2; settings: mouse intestine; diet 1 ppm Se, 100 days; compared to controls
From the text: as §1, §2, §3

Neurogenin 3 (Neurog3) = experiment: Intestinal gene expression: Neurog3; settings: mouse intestine; diet 1 ppm Se, 100 days; vs selenium deficient
From the text: as §1, §2, §3

[5] = tested on: Glutathione S-transferase, mu3 (Gstm3); experiment: Intestinal gene expression: Gstm3; settings: mouse intestine; diet 1 ppm Se, 100 days; vs Se-deficient diets; negative = down; NS = not significant
From the text: as §1, §2, §3

[6] = tested on: Glutathione S-transferase, alpha 4 (Gsta4); experiment: Intestinal gene expression: Gsta4; settings: mouse intestine; diet 1 ppm Se, 100 days; vs Se-deficient diets; negative = down; NS = not significant
[7] = tested on: sprouty homolog 2 gene (Spry2); experiment: Intestinal gene expression: Spry2; settings: mouse intestine; diet 1 ppm Se, 100 days; relative to Se-deficient controls
From the text: as §1, §2, §3

[8] = tested on: Growth arrest and DNA-damage-inducible 45 gamma. (Gadd45g); experiment: Intestinal gene expression: Gadd45g; settings: mouse intestine; diet 1 ppm Se, 100 days; vs selenium deficient; negative = down
From the text: as §1, §2, §3

CORS-26 = experiment: Cerebral cortex gene expression: CORS-26; settings: mouse cerebral cortex; diet 1 ppm Se, 100 days; vs selenium deficient
From the text: as §1, §2, §3

Prohibitin (Phb) = experiment: Intestinal gene expression: Prohibitin; settings: mouse intestine; diet 1 ppm Se, 100 days; vs selenium deficient
From the text: as §1, §2, §3

Q: For `O=[Se](O)O` [Sod-sel, sodium selenite], which “Dio2 expression, down-regulation” value [1] is on record?
A: Its value is “no ability to alter the expression levels”.

Q: What about the “FC Gsta3 expression” value [2] of the same compound?
A: The value was “decreased expression”.

Q: What about the “selenoprotein N1 (Sepn1) expression level, increased” value (selenoprotein N1 (Sepn1)) of the same compound?
A: Its value is “not significantly affected”.

Q: What about the “Glo1 expression, reduction of expression” value (Glyoxalase 1 (Glo 1)) of the same compound?
A: The value was “not significantly affected”.

Q: What about the “Lhx8 expression, upregulated” value [3] of the same compound?
A: Its value is “not significantly different”.

Q: And the “TGF-β2 expression, upregulated” value [4]?
A: Its value is “not altered”.

Q: What about the “Neurog3 expression, upregulated” value (Neurogenin 3 (Neurog3)) of the same compound?
A: Its value is “no significant alteration”.

Q: And the “FC Gstm3 expression” value [5]?
A: Its value is “decreased expression”.

Q: What about the “FC Gsta4 expression” value [6] of the same compound?
A: Its value is “decreased expression”.

Q: And the “Spry2 gene expression, reduction” value [7]?
A: The value was “no alteration”.

Q: What about the “FC Gadd45g expression” value [8] of the same compound?
A: The value was “decreased expression”.

Q: What about the “CORS-26 expression, reduction in expression” value (CORS-26) of the same compound?
A: The value was “no alteration”.

Q: What about the “Prohibitin (Phb) expression, downregulated” value (Prohibitin (Phb)) of the same compound?
A: The value was “did not significantly alter”.
